Taken from: PubChem BioAssay AID504764 (Drosophila RNAi Screening Center, 2011)
Test: 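Genome-wide screen for regulators of Notch-driven gene expression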 (primary screen). System: Drosophila Kc167 cells. Reagent: long dsRNA against Drosophila genes. Time to read-out: about 5 days (4 days dsRNA, then 24 h after transfection). Conditions: transfection of constitutively active membrane-tethered Notch lacking the extracellular domain, read 24 h later. Read-out: 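Light from a Notch-responsive E(spl)m3 luciferase reporter under active Notch, with control-promoter and no-Notch reporter wells to normalise; raw counts from paired wells a and b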. Scale: induced reporter light, run 1, well a and induced reporter light, run 1, well b: higher = more light from the Notch target reporter with active Notch; control promoter light, run 1, well a and control promoter light, run 1, well b: higher = more light from the viral control promoter (cell number, transfection, viability); uninduced reporter light, run 1, well a: higher = more light from the Notch target reporter without active Notch. Hit rule: 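Wells with low control signal or poorly matching duplicates excluded; duplicates averaged; per source plate, z beyond ±2 for induced/control log2 ratio or beyond ±1.8 for induced/uninduced marks a hit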. Meaning of the calls: active = modifier hit (raised or lowered Notch signal); inactive = not a hit.
The screen tested about 22,000 reagents; shown is an unselected part of those with a known target gene and a result. Of all reagents, 403 (1.9%) are marked active. 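Unnormalised raw counts per well; ratio z-scores behind the hit calls and whether each hit raises or lowers signal are not deposited.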 A number with no mark means an inactive call. The numbers tell different reagents against one gene apart. Not stated in the record: the amount of reagent.

e(y)2 — induced reporter light, run 1, well a = 69920; induced reporter light, run 1, well b = 80895; control promoter light, run 1, well a = 1.27e5; control promoter light, run 1, well b = 1.21e5; uninduced reporter light, run 1, well a = 5795
CG12177 — induced reporter light, run 1, well a = 26355; induced reporter light, run 1, well b = 22075; control promoter light, run 1, well a = 26060; control promoter light, run 1, well b = 31720; uninduced reporter light, run 1, well a = 1800
Pdzd8 — induced reporter light, run 1, well a = 1.49e5; induced reporter light, run 1, well b = 1.37e5; control promoter light, run 1, well a = 2.62e5; control promoter light, run 1, well b = 2.22e5; uninduced reporter light, run 1, well a = 9650
CG5681 — induced reporter light, run 1, well a = 1.49e5; induced reporter light, run 1, well b = 1.55e5; control promoter light, run 1, well a = 1.61e5; control promoter light, run 1, well b = 1.51e5; uninduced reporter light, run 1, well a = 12800
cnir — induced reporter light, run 1, well a = 1.83e5; induced reporter light, run 1, well b = 1.51e5; control promoter light, run 1, well a = 2.18e5; control promoter light, run 1, well b = 2.11e5; uninduced reporter light, run 1, well a = 10040
CG9733 — induced reporter light, run 1, well a = 1.32e5; induced reporter light, run 1, well b = 1.32e5; control promoter light, run 1, well a = 2.14e5; control promoter light, run 1, well b = 1.93e5; uninduced reporter light, run 1, well a = 10635
CG34050 (retired record) — induced reporter light, run 1, well a = 3575; induced reporter light, run 1, well b = 2565; control promoter light, run 1, well a = 4060; control promoter light, run 1, well b = 4255; uninduced reporter light, run 1, well a = 2730
Pus7 — induced reporter light, run 1, well a = 1.71e5; induced reporter light, run 1, well b = 1.75e5; control promoter light, run 1, well a = 2.22e5; control promoter light, run 1, well b = 1.91e5; uninduced reporter light, run 1, well a = 8705
CG3817 — induced reporter light, run 1, well a = 57650; induced reporter light, run 1, well b = 56030; control promoter light, run 1, well a = 78225; control promoter light, run 1, well b = 71980; uninduced reporter light, run 1, well a = 4540
Pms2 — induced reporter light, run 1, well a = 1.08e5; induced reporter light, run 1, well b = 1.29e5; control promoter light, run 1, well a = 2.26e5; control promoter light, run 1, well b = 2.77e5; uninduced reporter light, run 1, well a = 11942
Eip93F #1 — induced reporter light, run 1, well a = 72060; induced reporter light, run 1, well b = 73910; control promoter light, run 1, well a = 90895; control promoter light, run 1, well b = 70900; uninduced reporter light, run 1, well a = 10675
Eip93F #2 — induced reporter light, run 1, well a = 31970; induced reporter light, run 1, well b = 37330; control promoter light, run 1, well a = 27850; control promoter light, run 1, well b = 26460; uninduced reporter light, run 1, well a = 4880
Rab40 — induced reporter light, run 1, well a = 59140; induced reporter light, run 1, well b = 66820; control promoter light, run 1, well a = 67620; control promoter light, run 1, well b = 78880; uninduced reporter light, run 1, well a = 4250
CG32512 #1 — induced reporter light, run 1, well a = 1.11e5; induced reporter light, run 1, well b = 90215; control promoter light, run 1, well a = 99945; control promoter light, run 1, well b = 1.33e5; uninduced reporter light, run 1, well a = 10035
CG32512 #2 — induced reporter light, run 1, well a = 56745; induced reporter light, run 1, well b = 40640; control promoter light, run 1, well a = 54400; control promoter light, run 1, well b = 52410; uninduced reporter light, run 1, well a = 7230
CG15530 — induced reporter light, run 1, well a = 1.17e5; induced reporter light, run 1, well b = 1.04e5; control promoter light, run 1, well a = 1.90e5; control promoter light, run 1, well b = 1.47e5; uninduced reporter light, run 1, well a = 11635
CG15167 — induced reporter light, run 1, well a = 59565; induced reporter light, run 1, well b = 49370; control promoter light, run 1, well a = 50515; control promoter light, run 1, well b = 44215; uninduced reporter light, run 1, well a = 4275
CG1622 — induced reporter light, run 1, well a = 2.28e5; induced reporter light, run 1, well b = 2.43e5; control promoter light, run 1, well a = 2.32e5; control promoter light, run 1, well b = 2.39e5; uninduced reporter light, run 1, well a = 15120
